About 3,700 (1.2%) of roughly 300,000 compounds were called active. This list was built around the results that the source calls inconclusive (neither active nor inactive); the mix of calls is not that of the screen. The call rests on the fitted dose curve; tested in HEK293 cells. Potencies beside an inconclusive call are fits to weak or partial responses and may not hold up.
assay: qHTS for Inhibitors of binding or entry into cells for Lassa Virus; conditions: Lassa virus pseudotype entry inhibition, cell reporter; activity change, negative = inhibition: at 37.9 µM (top of the series) unless noted; further: nearly all actives have a fitted effect of over 50% in size
On the % scale 0 is the no-effect control and ±100 the full control effect; potency means the concentration at half of the fitted maximal effect.

| SMILES | activity change, negative = inhibition | Potency |
| --- | --- | --- |
| CC(=O)Nc1cccc(OC(=O)c2ccoc2C)c1 | inactive: 8.45% | – |
| Cc1ccc(-n2nc(C(=O)O)c3ccccc3c2=O)cc1C | – | inconclusive: 6.31 µM [inhibitor, single point] |
| Cc1ccc(N2CCCC2=O)cc1S(=O)(=O)N1CCOCC1 | inactive: 27.9% [at 46.1 µM] | – |
| CCOc1ccc(NC(=O)N(Cc2c[nH]c3ccccc23)C2CCCCCC2)cc1 | inactive: -4.91% [at 46.1 µM] | – |
| CNC(=S)N1CCN(c2nc(-c3ccc(Cl)cc3)cs2)CC1 | – | inconclusive: 7.94 µM [inhibitor, partial curve, poor fit] |
| CCOc1ccc(CN(C)C(=O)CNC(=O)c2ccc3ccccc3c2)cc1OC | inactive: -14.7% | – |
| Cc1nc2sc(C(=O)N(C)c3ccccc3)c(NC(=O)c3ccccc3Cl)c2c(C)c1C | – | inconclusive: 3.16 µM [inhibitor, single point] |
| Cc1cc(NCCCN2CCOCC2)n2ncc(-c3ccc(Cl)cc3)c2n1 | – | inconclusive: 4.61 µM [activator, single point] |
| CCC(=O)c1c(NCCc2ccccc2)cc(C)oc1=O | inactive: 0.554% | – |
| Cc1cc(C)n(-c2nnc(NC34CC5CC(CC(C5)C3)C4)nn2)n1 | – | inconclusive: 1.03 µM [activator, full curve, poor fit] |
| CCn1c(=O)c(C(=O)NCc2ccc(F)cc2)c(O)c2ccccc21 | – | inconclusive: 14.1 µM [inhibitor, single point] |
| CCN(CC(=O)Nc1ccccc1C(F)(F)F)C(=O)C1=COCCO1 | – | inconclusive: 4.47 µM [activator, single point] |
| CCOC(=O)c1cc(-c2ccc(OC)cc2)nc2c1c(C)nn2CCC#N | inactive: -1.76% | – |
| COc1ccc(-c2nnc3n(CCc4ccccc4)c(=O)c4ccccc4n23)cc1OC | inactive: -27.8% | – |
| C/C(=N\NC(=O)c1nn(C)cc1Br)c1cccc(NC(=O)C(C)(C)C)c1 | inactive: -2.3% | – |
| CSc1ccc(C2c3c(oc4cc(C)cc(C)c4c3=O)C(=O)N2CCO)cc1 (configuration not stated) | inactive: 23.1% [at 46.1 µM] | – |
| N#Cc1ccsc1NC(=O)COC(=O)c1ccc(NC(N)=O)cc1 | – | inconclusive: 0.562 µM [inhibitor, partial curve, poor fit] |
| Cc1ccc(NC(=O)NNC(=O)c2cccs2)cc1 | – | inconclusive: 35.5 µM [activator, partial curve, poor fit] |
| COCCN(C(=O)CCCC(=O)Nc1ccccn1)C(C(=O)NC1CCCCC1)c1ccc(C)cc1 (configuration not stated) | inactive: -6.19% | – |
| O=CN1Cc2ccccc2-c2ccccc2C1 | – | inconclusive: 20 µM [inhibitor, single point] |
| CC(=O)c1ccc(NC(=O)c2cc(-c3ccc4c(c3)OCO4)on2)cc1 | inactive: 0.766% [at 46.1 µM] | – |
| Cc1ccc(C2(c3noc(CN(C)CC4COCCO4)n3)CCCC2)cc1 (configuration not stated) | – | inconclusive: 1.12 µM [inhibitor, full curve, poor fit] |

3 entries from above, sorted by SMILES length, descending:

| SMILES | activity change, negative = inhibition | Potency |
| --- | --- | --- |
| CSc1ccc(C2c3c(oc4cc(C)cc(C)c4c3=O)C(=O)N2CCO)cc1 (configuration not stated) | inactive: 23.1% [at 46.1 µM] | – |
| CC(=O)Nc1cccc(OC(=O)c2ccoc2C)c1 | inactive: 8.45% | – |
| O=CN1Cc2ccccc2-c2ccccc2C1 | – | inconclusive: 20 µM [inhibitor, single point] |
